No constants are given. Whether binding was seen depends on the method and setting. Binding seen in cells or lysates may run through a third protein. A yes stands for co-enrichment or nearness to the bait. Other partners may have been found. Each block holds one binder with its values, some of them ahead of it.
Biological target: T1, PIWI (C. elegans) (UniProt P90786)
T1 sequence: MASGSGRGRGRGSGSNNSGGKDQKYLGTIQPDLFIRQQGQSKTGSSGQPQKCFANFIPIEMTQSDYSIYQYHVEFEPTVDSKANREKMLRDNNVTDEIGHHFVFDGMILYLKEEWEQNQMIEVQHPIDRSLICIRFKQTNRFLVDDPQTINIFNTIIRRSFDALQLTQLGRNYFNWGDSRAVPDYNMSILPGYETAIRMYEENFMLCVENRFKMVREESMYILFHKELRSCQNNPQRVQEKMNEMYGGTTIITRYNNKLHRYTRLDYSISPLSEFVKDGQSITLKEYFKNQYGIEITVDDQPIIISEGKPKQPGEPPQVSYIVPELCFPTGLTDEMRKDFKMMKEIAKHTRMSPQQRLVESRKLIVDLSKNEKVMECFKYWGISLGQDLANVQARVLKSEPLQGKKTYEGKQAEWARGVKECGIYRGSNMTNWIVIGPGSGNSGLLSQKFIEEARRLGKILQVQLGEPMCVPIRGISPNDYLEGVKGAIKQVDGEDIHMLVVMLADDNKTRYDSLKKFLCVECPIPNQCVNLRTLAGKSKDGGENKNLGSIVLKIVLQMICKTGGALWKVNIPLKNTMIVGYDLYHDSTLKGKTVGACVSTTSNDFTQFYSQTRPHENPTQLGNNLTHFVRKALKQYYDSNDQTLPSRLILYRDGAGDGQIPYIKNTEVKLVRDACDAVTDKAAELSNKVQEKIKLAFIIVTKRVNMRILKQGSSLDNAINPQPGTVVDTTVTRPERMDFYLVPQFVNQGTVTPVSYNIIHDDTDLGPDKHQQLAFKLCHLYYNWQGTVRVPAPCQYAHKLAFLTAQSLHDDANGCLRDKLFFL
Test: affinity purification with mass spectrometry; IP-mass spec of PIWI (Figure S2D; Barucci et al., 2020 cited); conditions not given

binding: binds
B1: HRDE-1 (protein, UniProt Q09249 1-1032)
chain: MADLLDKIMGSSSSNRIPKRDNRMNQDKDEPTSKRSAPMFSTPKSTTPIGRDSFATMDTMNVQMNMFPVDIKDMPHKIQRFQVDVIVCSSNGKQINANLGVLAAKGDVNSHNRRLAQYYIMRTVHDKLLVKFSGKSHHFLAYDCAATLYLPEGVYTGDDQEEVTLTIDDFPKEEWKFVSKLSRRKDDSYLVVLKPAGFVYTQGEVAQEEANRMELTRIIEIVTSQKLNNEDYLQFGNATFPRLSPPHSEPDAISEIRSGFAKVSRLSQNGGGKAFMTVDTKISPFYKDTSVIKFSSNKLSEMKGGGGGRGGYGRSDSRDSRGGYRGGRSDSRDFRGVYGNRGGNDRYRDESRGRRDMYDSRRDSGSSNGADYSPSDAAELEHAFGERGNTKRCIEEALKGLDVECTHLKGNLIRVSSIAENNAENTSFMMKDDKGEREVTVAEYFLLQYNIKLKYPRLPLVVSKRFKHESFFPMELLRIAPGQRIKVNKMSPTVQSAMTGRNASMPQHHVKLVQDILRDNLKLEQNKYMDAFGIKLMSTEPIQMTAKLLPPAQIKFKGQTYMPDMSRPAFRTQDKFVEPARIRKIGIVVFDNCIQMRQAEDFCDKLSNFCRDNGITVEKDSRDWSIRELNSSDSVAIQNLMKKWLDDRVDILVGIAREKKPDVHDILKYFEESIGLQTIQLCQQTVDKMMGGQGGRQTIDNVMRKFNLKCGGTNFFVEIPNAVRGKAVCSNNETLRKKLLEHVQFIGFEISHGASRTLFDRSRSQMDGEPSVVGVSYSLTNSTQLGGFTYLQTQKEYKLQKLDEFFPKCVRSYKEHSKTLPTRIVIYRVGAGEGNFNRVKEEVEEMRRTFDKIQPGYRPHLVVIIAQRASHARVFPSCISGNRATDQNIPSGTCVENVLTSYGYDEFILSSQTPLIGTVRPCKYTILVNDAKWSKNELMHLTYFRAFGHQVSYQPPSVPDVLYAAENLAKRGRNNYKIHQRYVNLQAVENRIIKDHSELINEDMREELAAAIVDEMSVAMNGMTIPKRNFWA

binding: binds
B2: MUT-16 (protein, UniProt O62011 1-1054)
chain: MSESDDDYPELDISDQYIDPLGIVVGPPPASYTETDREETPMQNRTEDDTNSYGNSSGEHDYDSYLDSGDDDFDVDAYYANDNMDEPPPETIPDNLIQNVIGRNDNADYDFSDASNPEIMKRDLQLFLSSSLLSNPLKFRSGYSSDELDDCLKSCMGYSLQVTAVLLLPPEIISQLPNDSKTEHAHALVRGGWLQSKEGAFFPVISDSERETVVSLMNGSEEQHKRQERKKKEADTFESEEKEIRTLLTFNMIAELLMAVRNEYSIRSVKYQILSTAYTNMVTGAAHANIFRKYKDILQLDPEKLWNNDWFKEYTNRGTLKKFLTTARFSEIVVSQANGKTVELYFRADDEGNRPVVLFTDEHIADVRNKWKTGNQRNQNYGSQGNYRAGGQRSDDRRGPQQRRNVIVPDPNYQPSTFAGGISNNADDDGSLQPTTSSHFNRNTDRSTSRPPRAPTSPVNRVMETDPLMGQGTSSGAPQRSAIPNPFGGAPALSRSTITNGNRGPSYGDRGERVQDVGDTTSDSEITSEGSYSDEDPEQKEIKRQRRKDKLKKKQERELRSREKHTKSKQQPPSKIETRFNTYKKKSESSATDTSNTPPVDTVNVALPTPVVESSSTTAAPSIPVSTRPEVVVPPENPAPLREVGNFYSKSNHDEDRRNVQLPFTPADTHKPIKVAPKEPVRNPLLKERPSANGFINRRLPSHPAPPPVNQSQPANQPMQTAVYQNSHPGAPYIPQQPTYQPQLPVQQPQPHQYAPQPIHHQQPIHQPMHGQQYPPVNQQQPIYQQPAPQYPPYNSIQNNPQHGPSPFNYSQVPQPAYNHVGQQPSHMSNQPHINQNGYQNSYNPNQGPTSSDPNYGCNPQFNHYGSRSVYHEDHSSQRRRSPDQFPPNPPEYDPHGNFKLADYERDRMTVGYSQNPHQFDHHGSHMPHQSQPQGYDNFNGNSAPYFNKNGGQSNHQPEAQRSFSVLSSNRQPSNRELIFQDGIEKELRDIILRYRSMNLTVLTVQELRTEVSRRPAIPRYIDIVQYIRDSSSVAIVERGDIEPYVVLKDDIRN
